# Test results reported in paper PMC7862700.
# Sequences of proteins named here, by UniProt entry; tags and fusion partners are left off. A change or cut given only in a name is not applied to a line headed by its entry.
# UniProt P32519: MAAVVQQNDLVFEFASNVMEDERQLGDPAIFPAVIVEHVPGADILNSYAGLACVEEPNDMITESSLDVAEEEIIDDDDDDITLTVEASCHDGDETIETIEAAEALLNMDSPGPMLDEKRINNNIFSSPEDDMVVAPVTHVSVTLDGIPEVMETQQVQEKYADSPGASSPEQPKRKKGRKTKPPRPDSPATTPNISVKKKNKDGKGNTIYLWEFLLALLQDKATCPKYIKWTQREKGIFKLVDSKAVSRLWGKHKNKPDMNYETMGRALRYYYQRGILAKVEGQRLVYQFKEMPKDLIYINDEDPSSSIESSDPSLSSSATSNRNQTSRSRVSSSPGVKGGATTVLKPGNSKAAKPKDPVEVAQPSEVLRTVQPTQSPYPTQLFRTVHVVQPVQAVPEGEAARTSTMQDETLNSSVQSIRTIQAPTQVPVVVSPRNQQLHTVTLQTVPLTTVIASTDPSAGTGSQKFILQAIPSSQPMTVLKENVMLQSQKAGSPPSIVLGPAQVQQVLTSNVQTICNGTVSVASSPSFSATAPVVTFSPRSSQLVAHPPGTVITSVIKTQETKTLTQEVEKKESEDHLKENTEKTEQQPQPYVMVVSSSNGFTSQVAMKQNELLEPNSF
# UniProt P50549: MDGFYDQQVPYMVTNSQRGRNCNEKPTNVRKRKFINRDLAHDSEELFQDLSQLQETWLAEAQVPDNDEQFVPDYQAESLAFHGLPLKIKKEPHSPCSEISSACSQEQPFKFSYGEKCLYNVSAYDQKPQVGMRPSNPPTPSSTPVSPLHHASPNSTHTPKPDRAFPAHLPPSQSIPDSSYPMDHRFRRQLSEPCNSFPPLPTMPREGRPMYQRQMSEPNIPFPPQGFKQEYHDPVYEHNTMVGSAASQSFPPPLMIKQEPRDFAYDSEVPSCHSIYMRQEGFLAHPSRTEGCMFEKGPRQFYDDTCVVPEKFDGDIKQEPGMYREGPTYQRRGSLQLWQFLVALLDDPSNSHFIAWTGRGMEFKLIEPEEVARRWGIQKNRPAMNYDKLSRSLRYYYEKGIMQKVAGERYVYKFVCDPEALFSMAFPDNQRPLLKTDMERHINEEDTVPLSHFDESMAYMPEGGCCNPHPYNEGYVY
# The entries are a selection whose mix differs from that of the whole data set. For some of these results: At the low end of the ranking the order means little. The list shows a part of the results. For some of these results: The source does not settle which construct or isoform was used.
# Key:
# Assay in all cases: DAPPL (digital affinity profiling via proximity ligation, sequencing)
# Details in all cases: 10 mM Tris-HCl pH 7.5, 50 mM NaCl, 1 mM DTT, 4% glycerol, room temperature, 30 min; GST-TFs on glutathione beads, 16-mer random dsDNA library, 0.1% …; high values mean tight binding; double strand, one strand shown; scale: fold enrichment (6-mer frequency, TF over GST control)
# ERG = biological target: T1, ERG (UniProt P11308)
# T1 sequence: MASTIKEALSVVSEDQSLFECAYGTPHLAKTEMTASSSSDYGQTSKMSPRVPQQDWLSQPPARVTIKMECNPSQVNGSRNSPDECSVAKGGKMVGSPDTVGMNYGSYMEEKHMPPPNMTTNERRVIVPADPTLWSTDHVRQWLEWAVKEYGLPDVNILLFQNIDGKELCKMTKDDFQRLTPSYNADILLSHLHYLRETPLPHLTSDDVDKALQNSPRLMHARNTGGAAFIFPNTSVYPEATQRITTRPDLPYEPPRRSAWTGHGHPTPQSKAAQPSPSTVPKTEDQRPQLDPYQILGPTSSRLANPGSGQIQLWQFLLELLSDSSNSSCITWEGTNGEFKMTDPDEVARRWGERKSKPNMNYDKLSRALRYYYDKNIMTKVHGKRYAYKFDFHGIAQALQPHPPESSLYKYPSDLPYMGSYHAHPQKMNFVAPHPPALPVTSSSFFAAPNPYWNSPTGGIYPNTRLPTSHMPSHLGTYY
# ELF1 = ELF1 (UniProt P32519)
# ELK4 = biological target: T2, ELK4 (UniProt P28324-2)
# T2 sequence: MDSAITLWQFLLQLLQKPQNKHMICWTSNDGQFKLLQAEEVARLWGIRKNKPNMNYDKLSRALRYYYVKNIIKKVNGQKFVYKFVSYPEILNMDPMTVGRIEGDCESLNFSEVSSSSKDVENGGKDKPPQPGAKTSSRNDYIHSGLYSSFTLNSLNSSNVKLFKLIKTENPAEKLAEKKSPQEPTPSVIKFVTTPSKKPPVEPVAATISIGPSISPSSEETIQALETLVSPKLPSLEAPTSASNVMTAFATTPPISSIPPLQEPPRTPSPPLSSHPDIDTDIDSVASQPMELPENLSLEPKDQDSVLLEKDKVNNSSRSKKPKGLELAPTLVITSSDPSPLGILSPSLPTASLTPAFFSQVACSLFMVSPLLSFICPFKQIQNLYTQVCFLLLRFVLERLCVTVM
# ETV4 = biological target: T3, ETV4 (UniProt P43268)
# T3 sequence: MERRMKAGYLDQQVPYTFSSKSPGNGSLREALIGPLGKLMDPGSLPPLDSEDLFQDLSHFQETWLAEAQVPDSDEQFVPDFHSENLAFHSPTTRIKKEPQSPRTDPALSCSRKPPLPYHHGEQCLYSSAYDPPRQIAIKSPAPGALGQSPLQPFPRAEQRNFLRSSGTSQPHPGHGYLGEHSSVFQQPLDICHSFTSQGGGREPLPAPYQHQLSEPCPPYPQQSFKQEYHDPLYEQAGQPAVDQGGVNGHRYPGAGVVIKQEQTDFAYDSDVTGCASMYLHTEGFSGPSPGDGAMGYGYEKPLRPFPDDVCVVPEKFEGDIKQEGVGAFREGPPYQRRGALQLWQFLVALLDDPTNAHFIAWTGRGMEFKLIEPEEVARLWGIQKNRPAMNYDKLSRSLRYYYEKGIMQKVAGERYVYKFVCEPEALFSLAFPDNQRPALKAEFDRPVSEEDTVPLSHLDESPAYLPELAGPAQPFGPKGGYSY
# ETV1 = ETV1 (UniProt P50549)
# ERF = biological target: T4, ERF (UniProt P50548)
# T4 sequence: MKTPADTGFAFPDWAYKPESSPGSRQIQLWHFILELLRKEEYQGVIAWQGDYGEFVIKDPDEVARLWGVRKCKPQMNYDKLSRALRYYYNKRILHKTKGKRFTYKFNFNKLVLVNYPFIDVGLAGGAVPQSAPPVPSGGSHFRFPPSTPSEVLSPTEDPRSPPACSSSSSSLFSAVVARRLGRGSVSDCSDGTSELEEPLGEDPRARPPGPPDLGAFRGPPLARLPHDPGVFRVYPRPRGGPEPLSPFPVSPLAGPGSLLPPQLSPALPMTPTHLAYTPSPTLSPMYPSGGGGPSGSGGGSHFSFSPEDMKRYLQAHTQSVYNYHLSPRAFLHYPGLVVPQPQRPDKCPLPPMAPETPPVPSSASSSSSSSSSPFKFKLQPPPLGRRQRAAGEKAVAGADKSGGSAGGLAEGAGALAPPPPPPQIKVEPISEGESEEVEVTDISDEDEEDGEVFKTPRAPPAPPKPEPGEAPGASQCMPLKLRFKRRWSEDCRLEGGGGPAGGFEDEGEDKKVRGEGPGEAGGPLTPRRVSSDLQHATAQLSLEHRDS
Sequence,binding signal (ERG),binding signal (ELF1),binding signal (ELK4),binding signal (ETV4),binding signal (ETV1),binding signal (ERF)
CTGGGG,0.845,0.811,0.983,0.886,0.86,0.877
TCATAG,0.9,0.98,0.985,0.952,0.978,
TAGGGT,1.03,1.16,1.22,1.07,1.01,
GCGAAA,0.939,0.951,0.953,0.965,0.88,0.904
ACATGA,0.977,0.993,0.968,0.979,0.936,0.895
ATAGCG,0.947,0.906,0.857,0.925,0.987,
CCAAGA,0.879,0.93,0.886,0.858,0.888,
TCCAGT,0.664,0.663,0.696,0.674,0.652,0.687
CGACAG,0.974,0.991,1.03,1.01,0.945,
CGCAAT,0.898,0.937,1,0.906,0.984,0.958
TTTAGA,0.901,0.977,0.995,0.947,0.947,
TTGGCG,0.907,0.972,0.857,1.04,0.995,
GCGGCT,0.862,1,0.872,0.957,0.974,
TCATAC,1.14,,1.07,1.09,,1.2
TAGGAT,1.07,0.934,0.947,0.982,0.913,

# Reprinted at random: two entries already listed, in no set order.
Sequence,binding signal (ERG),binding signal (ELF1),binding signal (ELK4),binding signal (ETV4),binding signal (ETV1),binding signal (ERF)
ACATGA,0.977,0.993,0.968,0.979,0.936,0.895
TAGGGT,1.03,1.16,1.22,1.07,1.01,
